# Data published in the supplement of paper PMC8728848.
# The other results are listed elsewhere or left out.
# B1: SJCP1084 (Schistosoma japonicum) (protein)
# chain: MRIINLVIISTALLLINLLQTKSQANGEDTKNGTPDDPGLTKSTELKVEVQALLKDKKTNMRVKWNENLLDNTKPEYHNLRDEACELLLQIVRSVVPLSQDDGECKDVTFTKYVVGTKDGAVNVKLTITFKDSVAINQKPMDLKLKLENDFKNLQSESTLKATKPTFTVKVEKRLIPISKPQTTPPTTAKNDASKENVGDIGGEDSTVPTAAPATAASANEEKDEGDKDNKDSQHPNVLTSNVNDRNLIIALVALMILAIGVALTAAVKQR
# What was measured:
# Test in all cases: glycan array binding signal (z-score within array); higher = stronger binding
# Conditions in all cases: glycan notation: IUPAC condensed, linker removed
# [1] = biological target: Fuc(a1-2)Gal(b1-4)GlcNAc(b1-3)Gal(b1-4)GlcNAc(b1-3)Gal(b1-4)GlcNAc
# How it was run: (§1)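 Arrays were curated from the Consortium for Functional Glycomics database, 3228 in total, and kept only where the protein sequence was available. Binding is expressed as a within-array Z-score. This score was averaged across arrays of the same protein sequence at different concentrations or buffers and across linkers, and negative values can be read as non-binding.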
# [2] = biological target: Fuc(a1-2)Gal(b1-4)GlcNAc(b1-3)GalNAc
# How it was run: as §1
# [3] = biological target: Fuc(a1-2)Gal(b1-4)GlcNAc(b1-3)[Fuc(a1-2)Gal(b1-4)GlcNAc(b1-6)]GalNAc
# How it was run: as §1
# [4] = biological target: Fuc(a1-2)Gal(b1-4)GlcNAc(b1-3)[Fuc(a1-3)[Gal(b1-4)]GlcNAc(b1-6)]Gal(b1-4)Glc
# How it was run: as §1
# [5] = biological target: Fuc(a1-2)Gal(b1-4)GlcNAc(b1-6)GalNAc
# How it was run: as §1
# [6] = biological target: Fuc(a1-2)Gal(b1-4)GlcNAc6S
# How it was run: as §1
# [7] = biological target: Fuc(a1-2)Gal(b1-4)[Fuc(a1-3)]GlcNAc
# How it was run: as §1
# [8] = biological target: Fuc(a1-2)Gal(b1-4)[Fuc(a1-3)]GlcNAc(b1-2)Man(a1-3)[Fuc(a1-2)Gal(b1-4)[Fuc(a1-3)]GlcNAc(b1-2)Man(a1-6)]Man(b1-4)GlcNAc(b1-4)[Fuc(a1-6)]GlcNAc
# How it was run: as §1
# [9] = biological target: Fuc(a1-2)Gal(b1-4)[Fuc(a1-3)]GlcNAc(b1-2)[Fuc(a1-2)Gal(b1-4)[Fuc(a1-3)]GlcNAc(b1-4)]Man(a1-3)[Fuc(a1-2)Gal(b1-4)[Fuc(a1-3)]GlcNAc(b1-2)Man(a1-6)]Man(b1-4)GlcNAc(b1-4)GlcNAc
# How it was run: as §1
# [10] = biological target: Fuc(a1-2)Gal(b1-4)[Fuc(a1-3)]GlcNAc(b1-3)Gal(b1-4)[Fuc(a1-3)]GlcNAc
# How it was run: as §1
# [11] = biological target: Fuc(a1-2)Gal(b1-4)[Fuc(a1-3)]GlcNAc(b1-3)Gal(b1-4)[Fuc(a1-3)]GlcNAc(b1-3)Gal(b1-4)[Fuc(a1-3)]GlcNAc
# How it was run: as §1
# [12] = biological target: Fuc(a1-2)Gal(b1-4)[Fuc(a1-3)]GlcNAc(b1-3)GalNAc
# How it was run: as §1
# [13] = biological target: Fuc(a1-2)Gal(b1-4)[Fuc(a1-3)]GlcNAc(b1-3)[Neu5Ac(a2-6)Gal(b1-4)GlcNAc(b1-6)]Gal(b1-4)Glc
# How it was run: as §1
# [14] = biological target: Fuc(a1-2)Gal3S(b1-4)GlcNAc
# How it was run: as §1
# [15] = biological target: Fuc(a1-2)Gal6S(b1-3)GlcNAc
# How it was run: as §1
# [16] = biological target: Fuc(a1-2)Gal6S(b1-3)GlcNAc6S
# How it was run: as §1
# Fuc(a1-2)Gal6S(b1-4)Glc = biological target: Fuc(a1-2)Gal6S(b1-4)Glc
# How it was run: as §1
# [17] = biological target: Fuc(a1-2)Gal6S(b1-4)Glc6S
# How it was run: as §1
# Fuc(a1-2)[Gal(a1-3)]Gal = biological target: Fuc(a1-2)[Gal(a1-3)]Gal
# How it was run: as §1
# [18] = biological target: Fuc(a1-2)[Gal(a1-3)]Gal(b1-3)GalNAc
# How it was run: as §1
# [19] = biological target: Fuc(a1-2)[Gal(a1-3)]Gal(b1-3)GalNAc(b1-3)Gal(a1-4)Gal(b1-4)Glc
# How it was run: as §1
# [20] = biological target: Fuc(a1-2)[Gal(a1-3)]Gal(b1-3)GlcNAc
# How it was run: as §1
# [21] = biological target: Fuc(a1-2)[Gal(a1-3)]Gal(b1-3)GlcNAc(b1-2)Man(a1-3)[Fuc(a1-2)[Gal(a1-3)]Gal(b1-3)GlcNAc(b1-2)Man(a1-6)]Man(b1-4)GlcNAc(b1-4)GlcNAc
# How it was run: as §1
# [22] = biological target: Fuc(a1-2)[Gal(a1-3)]Gal(b1-3)GlcNAc(b1-2)Man(a1-3)[Fuc(a1-2)[Gal(a1-3)]Gal(b1-3)GlcNAc(b1-2)Man(a1-6)]Man(b1-4)GlcNAc(b1-4)[Fuc(a1-6)]GlcNAc
# How it was run: as §1
# [23] = biological target: Fuc(a1-2)[Gal(a1-3)]Gal(b1-3)GlcNAc(b1-3)GalNAc
# How it was run: as §1
# [24] = biological target: Fuc(a1-2)[Gal(a1-3)]Gal(b1-3)GlcNAc(b1-6)GalNAc
# How it was run: as §1
# [25] = biological target: Fuc(a1-2)[Gal(a1-3)]Gal(b1-4)Glc
# How it was run: as §1
# [26] = biological target: Fuc(a1-2)[Gal(a1-3)]Gal(b1-4)GlcNAc
# How it was run: as §1
# [27] = biological target: Fuc(a1-2)[Gal(a1-3)]Gal(b1-4)GlcNAc(b1-2)Man
# How it was run: as §1
# [28] = biological target: Fuc(a1-2)[Gal(a1-3)]Gal(b1-4)GlcNAc(b1-2)Man(a1-3)[Fuc(a1-2)[Gal(a1-3)]Gal(b1-4)GlcNAc(b1-2)Man(a1-6)]Man(b1-4)GlcNAc(b1-4)GlcNAc
# How it was run: as §1
binder,measurement,setting,value
B1,glycan array binding signal (z-score),[1],-0.128
same,glycan array binding signal (z-score),[2],0.22
same,glycan array binding signal (z-score),[3],-0.052
same,glycan array binding signal (z-score),[4],0.781
same,glycan array binding signal (z-score),[5],-1.1
same,glycan array binding signal (z-score),[6],-0.159
same,glycan array binding signal (z-score),[7],-0.299
same,glycan array binding signal (z-score),[8],-0.091
same,glycan array binding signal (z-score),[9],-0.415
same,glycan array binding signal (z-score),[10],1.23
same,glycan array binding signal (z-score),[11],-0.222
same,glycan array binding signal (z-score),[12],-0.35
same,glycan array binding signal (z-score),[13],-0.645
same,glycan array binding signal (z-score),[14],-1.04
same,glycan array binding signal (z-score),[15],-1.55
same,glycan array binding signal (z-score),[16],-0.42
same,glycan array binding signal (z-score),Fuc(a1-2)Gal6S(b1-4)Glc,2.12
same,glycan array binding signal (z-score),[17],-0.396
same,glycan array binding signal (z-score),Fuc(a1-2)[Gal(a1-3)]Gal,0.332
same,glycan array binding signal (z-score),[18],0.032
same,glycan array binding signal (z-score),[19],-0.223
same,glycan array binding signal (z-score),[20],-0.098
same,glycan array binding signal (z-score),[21],0.322
same,glycan array binding signal (z-score),[22],-0.939
same,glycan array binding signal (z-score),[23],-1.17
same,glycan array binding signal (z-score),[24],-1.16
same,glycan array binding signal (z-score),[25],-0.198
same,glycan array binding signal (z-score),[26],-0.059
same,glycan array binding signal (z-score),[27],-1.21
same,glycan array binding signal (z-score),[28],0.795

# Shown with tabs: part of the list above
binder	measurement	setting	value
B1	glycan array binding signal (z-score)	[1]	-0.128
same	glycan array binding signal (z-score)	[2]	0.22
